PubChem BioAssay AID1259308 – NCATS, 2017
Purpose: 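Candidate targets for better recombinant protein yield in mammalian cells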 (primary screen). Cell system: human HEK293 embryonic kidney cells stably expressing firefly luciferase (HEK-CMV-Luc2-Hygro). Reagent: single siRNA against human genes, 0.8 pmol siRNA per well. Duration: 72 h. Measured: 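Reporter luminescence and viable-cell signal on separate replicate plates, given as percent of non-targeting control and median/MAD z-scores, plus per-cell luciferase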. Scale: total luciferase, z-score and total luciferase, % of control: higher = more reporter protein produced; luciferase per cell, z-score: higher = more reporter output per viable cell; viable cells, % of control: higher = more viable cells. Call rule: 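Active when the median/MAD z-score for overall luciferase is greater than 3; a gene was taken forward for validation with new siRNAs if at least two of its three siRNAs passed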. Meaning of the calls: active = raised luciferase; inactive = no rise.
This is an unselected part of about 59,000 deposited reagents. About 1,510 of them (2.6%) count as active. 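Calls use total luciferase alone and ignore viability, so some active siRNAs may act by altering cell number.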 A number with no mark means an inactive call. Reagents against one gene are numbered here. No sequences are given here.

gene symbol | siRNA no. | total luciferase, z-score | total luciferase, % of control | luciferase per cell, z-score | viable cells, % of control
ARAF (GeneID 369) | 1 | -0.514 | 71.7 | -0.524 | 91.9
ARAF (GeneID 369) | 2 | -1.32 | 55.6 | -1.89 | 102
ARAF (GeneID 369) | 3 | 0.188 | 85.6 | -0.546 | 110
MSRB1 (GeneID 51734) | 1 | 1.22 | 106 | 0.93 | 92.8
MSRB1 (GeneID 51734) | 2 | 0.796 | 97.7 | 0.401 | 98.3
MSRB1 (GeneID 51734) | 3 | -0.495 | 72 | 0.199 | 76.4
RIGI (GeneID 23586) | 1 | -0.321 | 75.5 | -0.166 | 88.2
RIGI (GeneID 23586) | 2 | -0.152 | 78.9 | -0.85 | 110
RIGI (GeneID 23586) | 3 | 0.135 | 84.6 | -0.2 | 99.6
ARMCX3 (GeneID 51566) | 1 | -0.496 | 72 | -0.144 | 83.6
ARMCX3 (GeneID 51566) | 2 | -0.524 | 71.5 | -0.906 | 101
ARMCX3 (GeneID 51566) | 3 | -0.196 | 78 | -0.102 | 89.5
ZNF674 (GeneID 641339) | 1 | 0.852 | 98.8 | 0.863 | 88
ZNF674 (GeneID 641339) | 2 | 0.126 | 84.4 | 0.207 | 89.3
ZNF674 (GeneID 641339) | 3 | 1.25 | 107 | 0.913 | 93.8
MTA1 (GeneID 9112) | 1 | 1.21 | 106 | 0.135 | 114
MTA1 (GeneID 9112) | 2 | 0.295 | 87.8 | 0.508 | 85.8
MTA1 (GeneID 9112) | 3 | -0.538 | 71.2 | -0.475 | 90.2
MRFAP1 (GeneID 93621) | 1 | 1.19 | 106 | 2.51 | 60.9
MRFAP1 (GeneID 93621) | 2 | 0.466 | 91.2 | -0.0677 | 104
MRFAP1 (GeneID 93621) | 3 | 0.884 | 99.5 | 1.13 | 82.5
NIPAL1 (GeneID 152519) | 1 | -2.7 | 28.2 | 0.457 | 27.9
NIPAL1 (GeneID 152519) | 2 | 0.946 | 101 | 0.88 | 89.3
NIPAL1 (GeneID 152519) | 3 | -2.09 | 40.3 | -2.53 | 87.7
OR10G8 (GeneID 219869) | 1 | -0.315 | 75.6 | -0.207 | 89.2
OR10G8 (GeneID 219869) | 2 | -0.0365 | 81.2 | -0.0554 | 92
OR10G8 (GeneID 219869) | 3 | 0.341 | 88.7 | 0.515 | 86.5
FDX1 (GeneID 2230) | 1 | -0.67 | 68.6 | -1.14 | 103
FDX1 (GeneID 2230) | 2 | -0.326 | 75.4 | -0.452 | 94.9
FDX1 (GeneID 2230) | 3 | -0.0157 | 81.6 | -0.0529 | 92.4
DNASE1L2 (GeneID 1775) | 1 | 1.13 | 104 | 1.44 | 79.8
DNASE1L2 (GeneID 1775) | 2 | -0.219 | 77.5 | 0.384 | 78.3
DNASE1L2 (GeneID 1775) | 3 | -0.148 | 78.9 | -0.425 | 98.7
ACTN1 (GeneID 87) | 1 | -0.22 | 77.5 | -0.672 | 103
ACTN1 (GeneID 87) | 2 | 1.5 | 112 | 1.5 | 84.1
ACTN1 (GeneID 87) | 3 | 0.255 | 87 | 0.154 | 93.3
ASCC1 (GeneID 51008) | 1 | -0.391 | 74.1 | 0.119 | 80.3
ASCC1 (GeneID 51008) | 2 | 2.15 | 125 | 1.09 | 105
ASCC1 (GeneID 51008) | 3 | -0.271 | 76.5 | -0.344 | 93.6
FLNB (GeneID 2317) | 1 | -0.0463 | 81 | -0.333 | 98.8
FLNB (GeneID 2317) | 2 | 0.00498 | 82 | -0.238 | 97.5
FLNB (GeneID 2317) | 3 | -0.253 | 76.9 | -0.715 | 104
PCNX2 (GeneID 80003) | 1 | 0.32 | 88.2 | -0.128 | 102
PCNX2 (GeneID 80003) | 2 | -0.458 | 72.8 | -0.897 | 103
PCNX2 (GeneID 80003) | 3 | -0.989 | 62.2 | -1.44 | 102
BCAM (GeneID 4059) | 1 | 0.66 | 95 | 0.207 | 101
BCAM (GeneID 4059) | 2 | -1.13 | 59.4 | 0.752 | 54.5
BCAM (GeneID 4059) | 3 | 0.782 | 97.4 | 1.2 | 79.4
AMACR (GeneID 23600) | 1 | 0.353 | 88.9 | 0.0101 | 99.1
AMACR (GeneID 23600) | 2 | 3.72 (active) | 156 | 1.64 | 113
AMACR (GeneID 23600) | 3 | 1.05 | 103 | 1.45 | 78.5
CNN1 (GeneID 1264) | 1 | 0.355 | 89 | 0.46 | 88.1
CNN1 (GeneID 1264) | 2 | -2.14 | 39.2 | -0.3 | 47.4
CNN1 (GeneID 1264) | 3 | 2.74 | 136 | 2.14 | 86.8
THSD7A (GeneID 221981) | 1 | -0.241 | 77.1 | -0.166 | 90
THSD7A (GeneID 221981) | 2 | 0.623 | 94.3 | 0.2 | 100
THSD7A (GeneID 221981) | 3 | -0.153 | 78.8 | 0.862 | 70.2

5 of these entries in another layout.
{"gene symbol":"MTA1 (GeneID 9112)","siRNA no.":2,"total luciferase, z-score":0.295,"total luciferase, % of control":87.8,"luciferase per cell, z-score":0.508,"viable cells, % of control":85.8}
{"gene symbol":"MTA1 (GeneID 9112)","siRNA no.":3,"total luciferase, z-score":-0.538,"total luciferase, % of control":71.2,"luciferase per cell, z-score":-0.475,"viable cells, % of control":90.2}
{"gene symbol":"MRFAP1 (GeneID 93621)","siRNA no.":1,"total luciferase, z-score":1.19,"total luciferase, % of control":106,"luciferase per cell, z-score":2.51,"viable cells, % of control":60.9}
{"gene symbol":"MRFAP1 (GeneID 93621)","siRNA no.":2,"total luciferase, z-score":0.466,"total luciferase, % of control":91.2,"luciferase per cell, z-score":-0.0677,"viable cells, % of control":104}
{"gene symbol":"MRFAP1 (GeneID 93621)","siRNA no.":3,"total luciferase, z-score":0.884,"total luciferase, % of control":99.5,"luciferase per cell, z-score":1.13,"viable cells, % of control":82.5}
